Experimental data published in patent publication US20260055188A1.
Results are given in words; binding and its absence hold for the method and conditions named. Some binding calls cover weakened binding; strength is not graded here.

Sequences of proteins named here, by UniProt entry; tags and fusion partners are left off. A change or cut given only in a name is not applied to a line headed by its entry. A line that says so, or that is headed by a name, gives the form on record, which may keep a tag or linker.
Human-B7H3 His (manufacturer: Acro, CAT: TB73-H52E2) (Q5ZPR3, form named): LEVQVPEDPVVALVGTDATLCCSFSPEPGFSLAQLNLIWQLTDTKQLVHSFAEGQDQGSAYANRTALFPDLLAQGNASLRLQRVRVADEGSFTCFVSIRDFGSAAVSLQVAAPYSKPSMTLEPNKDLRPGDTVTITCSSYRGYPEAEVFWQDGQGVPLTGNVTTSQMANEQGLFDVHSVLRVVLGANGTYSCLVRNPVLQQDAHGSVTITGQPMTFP

Biological target: Human-B7H3 His (manufacturer: Acro, CAT: TB73-H52E2) (human) (UniProt Q5ZPR3)
Assay: ELISA: Human-B7H3 His coated (0.3 µg/mL), antibody titrated, goat anti-human IgG Fc detection, OD450 (Example 3)

B1: Positive Control (antibody, V domains shown)
VH: QVQLQQSGAELVKPGASVKLSCKASGYTFTNYDINWVRQRPEQGLEWIGWIFPGDGSTQYNEKFKGKATLTTDTSSSTAYMQLSRLTSEDSAVYFCARQTTATWFAYWGQGTLVTVSA
VL: DIVMTQSPATLSVTPGDRVSLSCRASQSISDYLHWYQQKSHESPRLLIKYASQSISGIPSRFSGSGSGSDFTLSINSVEPEDVGVYYCQNGHSFPLTFGAGTKLELK
B1 was tested, and the binding was “binds”.
